# Laboratory results as given in the supplement of paper PMC10849652.
# The chains behind the UniProt entries cited, without tags or fusion partners. Where a name states a change or a piece, a line headed by the entry shows the natural chain unless it says otherwise.
# UniProt P63172, whole entry, looked up: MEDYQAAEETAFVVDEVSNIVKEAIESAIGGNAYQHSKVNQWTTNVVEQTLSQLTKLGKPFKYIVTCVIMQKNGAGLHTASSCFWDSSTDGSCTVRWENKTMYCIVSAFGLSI
# UniProt Q9NX74: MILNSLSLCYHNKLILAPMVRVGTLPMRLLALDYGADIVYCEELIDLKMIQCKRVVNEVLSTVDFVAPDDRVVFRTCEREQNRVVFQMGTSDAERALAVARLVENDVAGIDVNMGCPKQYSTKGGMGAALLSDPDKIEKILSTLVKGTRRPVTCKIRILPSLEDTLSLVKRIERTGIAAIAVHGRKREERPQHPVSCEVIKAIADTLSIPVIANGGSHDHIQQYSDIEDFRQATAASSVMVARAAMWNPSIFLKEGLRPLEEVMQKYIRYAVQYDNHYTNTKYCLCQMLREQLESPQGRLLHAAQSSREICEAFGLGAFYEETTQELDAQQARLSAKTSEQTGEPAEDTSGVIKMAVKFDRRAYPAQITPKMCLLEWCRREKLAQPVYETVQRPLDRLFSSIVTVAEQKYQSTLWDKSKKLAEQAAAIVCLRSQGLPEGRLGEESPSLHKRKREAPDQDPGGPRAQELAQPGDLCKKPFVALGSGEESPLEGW
# UniProt P51452: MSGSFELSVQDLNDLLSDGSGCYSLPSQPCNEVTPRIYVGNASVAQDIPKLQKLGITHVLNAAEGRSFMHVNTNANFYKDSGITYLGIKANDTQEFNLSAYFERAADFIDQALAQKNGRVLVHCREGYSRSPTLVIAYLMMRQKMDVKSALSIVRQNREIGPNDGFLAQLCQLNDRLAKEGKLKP
# UniProt Q14126: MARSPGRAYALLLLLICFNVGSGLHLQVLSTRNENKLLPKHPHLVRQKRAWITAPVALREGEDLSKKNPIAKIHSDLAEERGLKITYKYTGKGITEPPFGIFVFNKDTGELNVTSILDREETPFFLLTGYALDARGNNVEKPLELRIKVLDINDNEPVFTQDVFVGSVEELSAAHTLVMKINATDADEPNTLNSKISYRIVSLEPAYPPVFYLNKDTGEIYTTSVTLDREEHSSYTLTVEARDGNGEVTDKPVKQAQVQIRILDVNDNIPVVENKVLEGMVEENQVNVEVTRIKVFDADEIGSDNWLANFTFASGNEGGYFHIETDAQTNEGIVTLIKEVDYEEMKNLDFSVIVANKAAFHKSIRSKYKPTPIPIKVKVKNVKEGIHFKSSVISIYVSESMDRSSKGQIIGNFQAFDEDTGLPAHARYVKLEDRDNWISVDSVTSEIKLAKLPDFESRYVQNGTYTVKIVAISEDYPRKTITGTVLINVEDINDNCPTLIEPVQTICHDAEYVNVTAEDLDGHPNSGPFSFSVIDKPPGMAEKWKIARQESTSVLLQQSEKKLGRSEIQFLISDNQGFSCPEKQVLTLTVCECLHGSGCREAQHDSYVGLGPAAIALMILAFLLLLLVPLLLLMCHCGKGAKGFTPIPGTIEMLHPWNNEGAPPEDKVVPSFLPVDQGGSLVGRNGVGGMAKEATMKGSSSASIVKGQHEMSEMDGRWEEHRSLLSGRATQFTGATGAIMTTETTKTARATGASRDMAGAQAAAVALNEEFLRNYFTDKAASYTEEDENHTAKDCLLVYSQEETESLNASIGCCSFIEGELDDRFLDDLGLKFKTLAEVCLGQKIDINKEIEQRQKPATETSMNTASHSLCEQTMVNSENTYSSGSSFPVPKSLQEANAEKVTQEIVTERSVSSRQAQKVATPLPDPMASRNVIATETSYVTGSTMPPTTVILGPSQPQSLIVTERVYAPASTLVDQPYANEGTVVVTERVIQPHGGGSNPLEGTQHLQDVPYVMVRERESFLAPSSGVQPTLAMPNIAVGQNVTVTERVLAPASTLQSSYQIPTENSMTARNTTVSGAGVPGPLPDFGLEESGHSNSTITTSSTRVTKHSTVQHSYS
# UniProt O95620: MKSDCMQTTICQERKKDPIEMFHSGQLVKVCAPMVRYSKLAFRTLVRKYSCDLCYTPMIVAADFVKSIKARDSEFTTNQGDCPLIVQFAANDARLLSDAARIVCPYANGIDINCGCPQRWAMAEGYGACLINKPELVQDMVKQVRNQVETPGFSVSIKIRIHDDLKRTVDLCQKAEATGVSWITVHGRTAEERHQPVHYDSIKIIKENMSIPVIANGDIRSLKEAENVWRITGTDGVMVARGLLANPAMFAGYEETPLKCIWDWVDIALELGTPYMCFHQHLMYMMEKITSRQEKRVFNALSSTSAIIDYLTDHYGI
# UniProt P42126: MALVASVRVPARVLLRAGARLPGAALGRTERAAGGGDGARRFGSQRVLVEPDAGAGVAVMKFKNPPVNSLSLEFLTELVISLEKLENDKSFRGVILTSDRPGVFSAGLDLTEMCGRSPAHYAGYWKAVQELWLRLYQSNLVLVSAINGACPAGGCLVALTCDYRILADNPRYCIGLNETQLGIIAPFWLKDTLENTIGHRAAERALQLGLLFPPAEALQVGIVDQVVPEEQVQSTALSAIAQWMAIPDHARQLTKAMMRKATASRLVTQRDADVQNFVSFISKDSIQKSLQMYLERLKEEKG
# UniProt P30084: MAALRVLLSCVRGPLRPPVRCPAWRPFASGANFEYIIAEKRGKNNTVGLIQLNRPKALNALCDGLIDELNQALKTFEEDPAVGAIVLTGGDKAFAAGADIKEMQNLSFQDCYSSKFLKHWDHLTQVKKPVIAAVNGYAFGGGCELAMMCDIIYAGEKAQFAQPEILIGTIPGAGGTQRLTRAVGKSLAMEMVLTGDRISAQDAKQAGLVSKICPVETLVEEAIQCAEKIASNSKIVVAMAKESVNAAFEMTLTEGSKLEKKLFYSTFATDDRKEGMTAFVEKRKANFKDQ
# UniProt Q99848: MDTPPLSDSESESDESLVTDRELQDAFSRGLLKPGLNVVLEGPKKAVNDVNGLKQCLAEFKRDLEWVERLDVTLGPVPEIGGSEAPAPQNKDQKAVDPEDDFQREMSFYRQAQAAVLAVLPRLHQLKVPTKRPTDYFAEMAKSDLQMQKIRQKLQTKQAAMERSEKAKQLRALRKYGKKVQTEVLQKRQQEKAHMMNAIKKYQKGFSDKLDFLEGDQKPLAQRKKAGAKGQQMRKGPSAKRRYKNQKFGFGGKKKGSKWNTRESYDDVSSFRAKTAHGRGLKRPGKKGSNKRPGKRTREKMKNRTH
# This is one part of the list.
# Columns and labels:
# Test in all cases: log2 fold change, soluble protein after heating vs DMSO (PISA); higher = thermal stabilisation; K562 cells, 10 uM, 30 min; active = over 0.2 and 3.5 SD of the protein, either way, in both replicates (recomputed)
# bafetinib = compound: Cc1ccc(NC(=O)c2ccc(CN3CC[C@H](N(C)C)C3)c(C(F)(F)F)c2)cc1Nc1nccc(-c2cncnc2)n1 [bafetinib]
# Outline: (§1)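 K562 cells (2×10^6 cells/mL) were treated with 10 μM compound for 30 min, and aliquots were heated for 3 min over 48°C-58°C. Pooled aliquots were extracted in PBS with 0.5% NP-40 at 4°C, and the supernatant after 21,000xg for 90 min was measured by TMTpro 16plex LC-MS/MS with channel sums equalised. Reported thermal stability, relative to control samples and from duplicates, is a log2 fold change.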
# [1] = compound: Cc1cccc(CC(=O)N2CCc3c2ccc(-c2cn(C)c4ncnc(N)c24)c3F)n1
# Outline: as §1
# nilotinib = compound: Cc1cn(-c2cc(NC(=O)c3ccc(C)c(Nc4nccc(-c5cccnc5)n4)c3)cc(C(F)(F)F)c2)cn1 [nilotinib]
# Outline: as §1
# [2] = compound: Cc1nc(Nc2n[nH]c3c2CN(C(=O)N[C@H](CN(C)C)c2ccccc2)C3(C)C)c2sccc2n1
# Outline: as §1
# dasatinib = compound: Cc1nc(Nc2ncc(C(=O)Nc3c(C)cccc3Cl)s2)cc(N2CCN(CCO)CC2)n1 [dasatinib]
# Outline: as §1
# [3] = compound: Cc1ncc(-c2ccnc(Nc3ccc(S(C)(=O)=O)cc3)n2)n1C(C)C
# Outline: as §1
# [4] = compound: Cn1cc(-c2ccc3c(c2)CCN3C(=O)Cc2cccc(C(F)(F)F)c2)c2c(N)ncnc21
# Outline: as §1
# [5] = compound: Cn1cc(-c2ccc3nnc(C(F)(F)c4ccc5ncccc5c4)n3n2)cn1
# Outline: as §1
# tipifarnib = compound: Cn1cncc1[C@@](N)(c1ccc(Cl)cc1)c1ccc2c(c1)c(-c1cccc(Cl)c1)cc(=O)n2C [tipifarnib]
# Outline: as §1
# mubritinib = compound: FC(F)(F)c1ccc(/C=C/c2nc(COc3ccc(CCCCn4ccnn4)cc3)co2)cc1 [mubritinib]
# Outline: as §1
# [6] = compound: NC(=O)Nc1cc(-c2cccc(F)c2)sc1C(=O)N[C@H]1CCCNC1
# Outline: as §1
# [7] = compound: NC(=O)c1cnc(N[C@@H]2CCCC[C@@H]2N)nc1Nc1cccc(-n2nccn2)c1
# Outline: as §1
# [8] = compound: NC1(c2ccc(-c3nc4ccn5c(=O)[nH]nc5c4cc3-c3ccccc3)cc2)CCC1
# Outline: as §1
# [9] = compound: NCC(=O)Nc1ccc(-n2nc(C(F)(F)F)cc2-c2ccc3c(ccc4ccccc43)c2)cc1
# Outline: as §1
# entinostat = compound: Nc1ccccc1NC(=O)c1ccc(CNC(=O)OCc2cccnc2)cc1 [entinostat]
# Outline: as §1
# vorinostat = compound: O=C(CCCCCCC(=O)Nc1ccccc1)NO [vorinostat]
# Outline: as §1
# citarinostat = compound: O=C(CCCCCCNC(=O)c1cnc(N(c2ccccc2)c2ccccc2Cl)nc1)NO [citarinostat]
# Outline: as §1
# silmitasertib = compound: O=C(O)c1ccc2c(c1)nc(Nc1cccc(Cl)c1)c1ccncc12 [silmitasertib]
# Outline: as §1
# [10] = compound: c1cc(OCCN2CCCCC2)cc(-c2n[nH]c3ccc(-c4nnc[nH]4)cc23)c1
# Outline: as §1
# [11] = compound: O=C1NC(=O)C(c2cnc3ccccn23)=C1c1cn2c3c(cc(F)cc13)CN(C(=O)N1CCCCC1)CC2
# Outline: as §1
Target,log2 fold change (bafetinib),log2 fold change [1],log2 fold change (nilotinib),log2 fold change [2],log2 fold change (dasatinib),log2 fold change [3],log2 fold change [4],log2 fold change [5],log2 fold change (tipifarnib),log2 fold change (mubritinib),log2 fold change [6],log2 fold change [7],log2 fold change [8],log2 fold change [9],log2 fold change (entinostat),log2 fold change (vorinostat),log2 fold change (citarinostat),log2 fold change (silmitasertib),log2 fold change [10],log2 fold change [11]
DYNLT1 (UniProt P63172),inactive: 0.011,inactive: 0.145,inactive: 0.034,inactive: 0.034,inactive: -0.081,inactive: 0.112,inactive: 0.152,inactive: 0.004,inactive: -0.058,inactive: 0.023,inactive: -0.093,inactive: 0.102,inactive: 0.011,inactive: 0.026,inactive: 0,inactive: 0.142,inactive: 0.031,inactive: -0.07,inactive: 0.008,
DUS2 (UniProt Q9NX74),inactive: -0.017,inactive: -0.025,inactive: -0.243,inactive: -0.032,inactive: -0.07,inactive: 0.014,inactive: -0.072,inactive: 0.01,inactive: 0.094,inactive: 0.045,inactive: 0.051,inactive: -0.066,inactive: -0.091,inactive: -0.004,inactive: 0.008,inactive: 0.041,inactive: 0.124,inactive: 0.092,inactive: 0.038,active: -0.424
DUSP3 (UniProt P51452),inactive: -0.005,inactive: -0.025,inactive: -0.002,inactive: -0.149,inactive: -0.054,inactive: 0.018,inactive: 0.047,inactive: -0.001,inactive: -0.038,inactive: -0.003,inactive: -0.021,inactive: -0.02,inactive: 0.013,inactive: -0.015,inactive: 0.048,inactive: 0.05,inactive: 0.021,inactive: 0.055,inactive: 0.006,inactive: -0.026
DSG2 (UniProt Q14126),inactive: -0.008,inactive: -0.012,inactive: 0.062,inactive: -0.088,inactive: 0.017,inactive: -0.005,inactive: 0.046,inactive: -0.004,inactive: 0.044,inactive: 0.009,inactive: -0.065,inactive: -0.015,inactive: -0.024,inactive: 0.013,inactive: -0.061,inactive: -0.004,inactive: 0.009,inactive: -0.006,inactive: -0.052,inactive: -0.001
DUS4L (UniProt O95620),inactive: -0.121,inactive: -0.03,inactive: -0.02,inactive: 0.053,inactive: -0.026,inactive: -0.019,inactive: 0,inactive: 0.014,inactive: 0.065,inactive: 0.053,inactive: -0.164,inactive: -0.006,inactive: 0.004,inactive: -0.006,inactive: -0.077,inactive: -0.049,inactive: -0.111,inactive: 0.048,inactive: -0.055,inactive: -0.105
ECI1 (UniProt P42126),inactive: -0.033,inactive: -0.092,inactive: -0.008,inactive: 0.031,inactive: 0.011,inactive: -0.025,inactive: 0.08,inactive: 0.02,inactive: -0.007,inactive: 0.004,inactive: -0.018,inactive: -0.003,inactive: 0.004,inactive: -0.045,inactive: 0.022,inactive: -0.021,inactive: 0.006,inactive: -0.001,inactive: -0.053,inactive: -0.035
ECHS1 (UniProt P30084),inactive: 0.051,inactive: 0.014,inactive: -0.015,inactive: 0.008,inactive: -0.074,inactive: -0.017,inactive: 0.053,inactive: -0.009,inactive: -0.033,inactive: 0.045,inactive: -0.041,inactive: 0.018,inactive: -0.004,inactive: 0.018,inactive: -0.017,inactive: 0.016,inactive: 0.123,inactive: -0.061,inactive: 0.043,inactive: -0.047
EBNA1BP2 (UniProt Q99848),inactive: 0.312,inactive: -0.114,inactive: 0.114,inactive: -0.089,inactive: 0.226,inactive: -0.004,inactive: -0.499,inactive: -0.176,inactive: 0.134,inactive: -0.124,inactive: 0.05,inactive: 0.006,inactive: 0.195,inactive: 0.158,inactive: -0.029,inactive: 0.133,inactive: 0.041,inactive: 0.151,inactive: -0.292,inactive: 0.352
